# Reference: PubChem BioAssay AID493014 (National Center for Advancing Translational Sciences (NCATS), 2011)
# Some of the results follow. The main result of the screen is listed elsewhere. These columns were measured beside it and carry no call. The list favours compounds with an active or inconclusive main result. Words in brackets tell the shape of the fitted curve; partial curves, single points and poor fits give uncertain potencies.
# Assay: qHTS Assay to Find Inhibitors of Chronic Active B-Cell Receptor Signaling
# Conditions: ABC-DLBCL IkBa-CBG/CBR reporter, luminescence ratio (green luciferase fused to IkBa over red control in TMD8 lymphoma cells), 4 h
# In short: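 Concentration-response series (up to 46 uM) were applied to TMD8 dual-reporter cells for 4 h at 37C with doxycycline. Green/red ratio, after filter-overlap correction, defined %Activity; red signal alone was normalised to basal cells and zero luminescence.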
# [1] = measured here: CBR red luminescence, cell number
Compound,AC50 [1],AC50 (measured here: IkBa-CBG green luminescence)
O=C(Nc1ccc(N2CCOCC2)c(F)c1)c1ccncc1,"29.1 µM [falling, single point]",
CCOC(=O)C1=C(C)NC(C)=C(C(=O)OCC)C1/C=C/c1ccccc1OC,"29.1 µM [falling, single point]",
O=C(CSc1nnnn1C1CCCC1)NCCc1ccccc1,"5.01 µM [rising, partial curve, poor fit]",
Cn1cccc1Cc1nnc(SCC(=O)Nc2nccs2)n1CCc1ccccc1,"29.1 µM [falling, partial curve, poor fit]",
CNC(=O)c1oc(-c2ccc(Cl)cc2)nc1C,"8.91 µM [rising, partial curve, poor fit]",
O=C(Nc1ccccn1)Nc1ccccc1Cl,"35.5 µM [rising, single point]",
COc1cccc(-c2ccc(NC(=O)C3CCCN(Cc4cnc(C)n4C)C3)cc2)c1 (centres undefined),"28.2 µM [falling, single point]",
Cc1nnc(NC(=O)c2ccc3ccccc3c2)o1,"35.5 µM [falling, single point]","35.5 µM [falling, single point]"
O=C(O)c1nc2nc(Cl)c(Cl)nc2[nH]1,"11.2 µM [falling, partial curve, poor fit]",
CC1CC(CN)CC(CO)C1 (centres undefined),"2.51 µM [rising, single point]",
CC[C@H](C)[C@H](NC(N)=O)C(=O)Nc1ccc(NC(C)=O)cc1,"6.31 µM [rising, single point]",
COc1ccc2[nH]c(=O)c(CN(c3ccccc3OC)S(=O)(=O)c3ccccc3)cc2c1,"3.98 µM [falling, partial curve, poor fit]",
O=C(CCc1ccccc1)Nc1cc(Cl)ccc1O,"16.4 µM [falling, single point]",
CCOc1ccc(C(=O)NCC(=O)OCc2c(F)cccc2Cl)cc1OCC,"25.9 µM [rising, single point]",
COc1cc(C(=O)NCc2ccc(-c3nc4ccccc4s3)cc2)cc(OC)c1OC,"1.3 µM [rising, full curve]",
N#CCCN(C(=O)CCl)c1cccc(Cl)c1,"11.2 µM [falling, partial curve]",
COc1ccc(NC(=O)C2CCCN2S(=O)(=O)c2ccc3c(c2)CCC(=O)N3)cc1Cl (centres undefined),"32.6 µM [falling, single point]",

Compound,AC50 [1],AC50 (measured here: IkBa-CBG green luminescence)
COc1ccc(NC(=O)c2cc(S(=O)(=O)NCC3COc4ccccc4O3)ccc2F)cc1 (centres undefined),"7.31 µM [falling, partial curve]",
COc1ccccc1N1CCN(C(=O)c2ccc3c(=O)n(Cc4ccc5c(c4)OCO5)c(=O)[nH]c3c2)CC1,"3.98 µM [falling, full curve]",
C/C=N/N(c1ccccc1)c1ccccc1,"10 µM [rising, partial curve, poor fit]",
Cc1ccnc(NCc2c(O)ccc3ccccc23)c1,"6.31 µM [falling, partial curve, poor fit]",
O=C1CC(c2ccccc2F)c2cc3c(cc2N1)CCC3 (centres undefined),"0.708 µM [falling, full curve]",
Cc1cc(/C=C(/C#N)c2cccc(F)c2)c(C)n1-c1cccnc1,"3.66 µM [rising, single point]",
CCOC(=O)CC1C(=O)NC2CCCCC2N1C(=O)Nc1ccc(Cl)cc1 (centres undefined),"7.31 µM [rising, partial curve, poor fit]",
COc1cc(/C=C/C(=O)OCC(=O)Nc2cccc(Oc3ccccc3)c2)ccc1O,"18.4 µM [falling, single point]",
Cc1cccc2cc(COC(=O)c3ccccc3)c(=O)[nH]c12,"8.91 µM [rising, partial curve, poor fit]",
O=C(N/N=C1/CC2C=CCC12)c1ccco1 (centres undefined),"20.6 µM [falling, partial curve]",
O=C(NC1CCCCC1)NC1CC2CCCC(C1)N2C1CCCC1 (centres undefined),"3.55 µM [rising, single point]",
CC(=O)c1cccc(NC(=O)c2cc(C)nn2-c2ccccc2)c1,"35.5 µM [rising, single point]",
COc1ccc(-n2nc(C(=O)NCC(=O)NCCCN3CCC(C)CC3)c3ccccc3c2=O)cc1Cl,"11.2 µM [falling, single point]",
Cc1ccc(C(C)NC(=O)/C(C#N)=C\c2c(C)[nH]c3ccccc23)cc1 (centres undefined),"16.4 µM [falling, partial curve, poor fit]",
O=C(O)c1ccccc1OCCOCCOc1ccccc1C(=O)O,"29.1 µM [rising, single point]",
CC(/C=N\NC(=O)c1cc(C)oc1C)=C\c1ccccc1,"0.259 µM [falling, full curve]",

# Rewritten as tab-separated lines: 2 of the compounds above
Compound	AC50 [1]	AC50 (measured here: IkBa-CBG green luminescence)
COc1ccc(NC(=O)C2CCCN2S(=O)(=O)c2ccc3c(c2)CCC(=O)N3)cc1Cl (centres undefined)	32.6 µM [falling, single point]	
COc1ccc(NC(=O)c2cc(S(=O)(=O)NCC3COc4ccccc4O3)ccc2F)cc1 (centres undefined)	7.31 µM [falling, partial curve]	
